Data taken from article PMC3502335.
Construct, isoform or probe ends are uncertain for at least one entry. Results from cells or extracts need not show a direct contact. For some assays here: A weaker result is weaker than the reference pair of the same experiment. Where a protein sequence is shown, tags need not be part of it. For some assays here: At least one verdict rests on a figure or table, not on a statement of the authors.

Columns and labels:
[1] = target: T1, Stat5b WT (rat) (UniProt P52632); experiment: competition EMSA; conditions: Cos-7 nuclear extract (1 ug for Kd, 2 ug for competition), 60 min at 4 C, 5% native PAGE in 1x TBE pH 8.3 at 20 C, probe 0.1-15 nM, binding buffer not given (ref 31), protein in a lysate after overexpression, protein details: Flag; for IC50: vs labeled R34, GH-activated, label: 5'-Cy5.5 as probe, unlabeled as competitor
T1 sequence (looked up, limits assumed): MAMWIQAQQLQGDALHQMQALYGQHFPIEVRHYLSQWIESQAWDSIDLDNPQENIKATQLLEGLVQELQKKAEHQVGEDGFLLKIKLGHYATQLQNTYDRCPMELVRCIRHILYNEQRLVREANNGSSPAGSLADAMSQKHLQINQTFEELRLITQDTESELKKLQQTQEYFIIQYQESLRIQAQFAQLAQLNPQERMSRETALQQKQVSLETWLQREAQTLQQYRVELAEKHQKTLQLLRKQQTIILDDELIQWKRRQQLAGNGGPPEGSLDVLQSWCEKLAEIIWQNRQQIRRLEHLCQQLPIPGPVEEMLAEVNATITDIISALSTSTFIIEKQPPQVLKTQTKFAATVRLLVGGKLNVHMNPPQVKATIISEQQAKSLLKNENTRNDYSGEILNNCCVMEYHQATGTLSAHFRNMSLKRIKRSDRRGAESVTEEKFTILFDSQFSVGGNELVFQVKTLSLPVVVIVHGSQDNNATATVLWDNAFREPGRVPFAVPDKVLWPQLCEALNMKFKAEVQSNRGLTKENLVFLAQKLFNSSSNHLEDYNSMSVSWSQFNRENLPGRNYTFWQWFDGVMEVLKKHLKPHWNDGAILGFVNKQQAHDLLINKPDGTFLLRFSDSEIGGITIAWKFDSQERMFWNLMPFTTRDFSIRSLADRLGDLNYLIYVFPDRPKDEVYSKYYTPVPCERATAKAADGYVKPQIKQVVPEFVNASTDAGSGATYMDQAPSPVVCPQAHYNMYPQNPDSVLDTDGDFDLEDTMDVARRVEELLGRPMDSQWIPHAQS

[2] = target: T1, Stat5b WT (rat); experiment: EMSA; conditions: GH-activated; Cos-7 nuclear extract (1 ug for Kd, 2 ug for competition), 60 min at 4 C; 5% native PAGE in 1x TBE pH 8.3 at 20 C; probe 0.1-15 nM; binding buffer not given (ref 31); protein in a lysate after overexpression; protein details: Flag; label: 5'-Cy5.5 as probe, unlabeled as competitor
[3] = vs labeled R34, IC50 only in figure

Sequence	binding result [1, 3]	further results
CACCAATTCATGGAAATTAAAC (double strand) [R2]	binds	–
AAGTTTTTCGAAGAATTGGAA (double strand) [R57]	binds	–
CATAGTTCACAGAAAAGAGA (double strand) [R61]	binds	–
TCTGCTTCTTAGAATGAAG (double strand) [R35]	–	Kd [2]: 17 nM; IC50 [1]: 35 nM
AAAATATTTCCTGGAACTAAA (double strand) [R3]	binds	–
GAATCCTTGTGTTTCTCTGAAATCCATAGCTAG (double strand) [R54]	binds	–
CCATGATTCCTAGAAAAGATGT (double strand) [R60]	binds	–
CTTCCTTCCTTGAAACTG (double strand) [R13]	binds	–
GGAAATTCGCAGAAGTGAG (double strand) [R59]	binds	–
CAAAGAATTTCTTCTTAGAATTTGTCAATTC (double strand) [R4]	binds	–
GAAACTGCCTTTTCCGTTGAATCTATCCTTCC (double strand) [R13.5]	–	binding result ([1]; vs labeled R34, competed very poorly, IC50 only in figure): binds more weakly
TCCAGTTCTCAGAAAGGAA (double strand) [R58]	–	Kd [2]: 1.3 nM; IC50 [1]: 2.2 nM
TCATCTTTCAGGGAAATCTAG (double strand) [R53]	binds	–
GGGCCTTCCTGGAAGAAAG (double strand) [R34]	–	Kd [2]: 6.1 nM; IC50 [1]: 2.7 nM
